# Assay results: publication PMC4738311
# No constants are given. Whether binding was seen depends on the method and setting. In cells and extracts the contact can be indirect. These calls come from enrichment with a bait or labelling near it, and not all partners need be listed. For some assays here: Sequences can lack the tags named with a protein.
# T1: TAP-tagged Pi3k92e, catalytic subunit of drosophila PI3K (drosophila) (UniProt P91634)
# T1 sequence: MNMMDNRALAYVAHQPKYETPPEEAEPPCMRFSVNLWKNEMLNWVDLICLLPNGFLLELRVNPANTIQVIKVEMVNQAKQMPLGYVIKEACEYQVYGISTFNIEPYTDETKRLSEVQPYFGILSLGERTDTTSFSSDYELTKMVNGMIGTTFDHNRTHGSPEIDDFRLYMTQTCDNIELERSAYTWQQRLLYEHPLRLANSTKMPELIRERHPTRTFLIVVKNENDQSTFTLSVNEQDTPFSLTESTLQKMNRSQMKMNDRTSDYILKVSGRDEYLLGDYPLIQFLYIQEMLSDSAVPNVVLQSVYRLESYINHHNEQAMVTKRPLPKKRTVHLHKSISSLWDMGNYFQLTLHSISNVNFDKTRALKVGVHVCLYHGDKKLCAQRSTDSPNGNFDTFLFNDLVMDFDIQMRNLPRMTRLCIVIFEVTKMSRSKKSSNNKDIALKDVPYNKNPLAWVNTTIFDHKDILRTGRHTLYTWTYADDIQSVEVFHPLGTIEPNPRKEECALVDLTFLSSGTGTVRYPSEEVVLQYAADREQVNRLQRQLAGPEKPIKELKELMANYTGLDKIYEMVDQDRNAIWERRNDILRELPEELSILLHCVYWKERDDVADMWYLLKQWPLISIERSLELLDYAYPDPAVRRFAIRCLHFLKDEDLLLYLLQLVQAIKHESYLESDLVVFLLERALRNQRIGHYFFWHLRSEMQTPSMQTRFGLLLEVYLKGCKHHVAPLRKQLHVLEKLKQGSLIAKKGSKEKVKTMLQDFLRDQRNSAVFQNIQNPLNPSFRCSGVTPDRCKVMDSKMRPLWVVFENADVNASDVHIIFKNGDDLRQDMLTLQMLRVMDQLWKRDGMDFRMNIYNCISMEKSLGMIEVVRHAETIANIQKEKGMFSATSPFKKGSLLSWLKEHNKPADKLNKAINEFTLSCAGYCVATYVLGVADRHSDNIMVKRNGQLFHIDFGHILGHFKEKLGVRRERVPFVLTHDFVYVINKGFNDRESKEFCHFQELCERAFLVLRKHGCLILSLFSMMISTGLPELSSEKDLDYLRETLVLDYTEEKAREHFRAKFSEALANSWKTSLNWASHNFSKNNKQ
# How the values were obtained:
# [1] = biological target: T1, TAP-tagged Pi3k92e, catalytic subunit of drosophila PI3K (drosophila); assay: affinity purification with mass spectrometry; IP of C-terminally TAP-tagged Pi3k21B or Pi3k92e from stable S2R+ cell lysates (basal or insulin 10 and 30 min), in-solution digestion, LC-MS/MS; hits kept after reciprocal BLAST with the human data and subtraction of empty-TAP controls
# [2] = biological target: TAP-tagged Pi3k21B (p60), regulatory subunit of drosophila PI3K (drosophila); assay: as above
binding [1],binding [2],Binder
binds,–,"Chico, drosophila ortholog of insulin receptor substrate 1 (protein, UniProt Q9XTN2 1-968) MASISDDGMALSGYLKKLKTMKKKFFVLYEETSTSAARLEYYDTEKKFLQRAEPKRVIYLKNCFNINRRLDTKHRFVIVLSSRDGGFGIVLENENDLRKWLDKLLVLQRNIANSNGTAHSPYDHVWQVVIQKKGISEKVGITGTYHCCLTSKSLTFVCIGPEKTPNGEDRVASIEILLTTIRRCGHASPQCIFYVELGRQSVLGSGDLWMETDNAAIATNMHNTILSAMSAKTESNTNLINVYQNRPDLSHEPMRKRSSSANEASKPINVNVIQNSQNSLELRSCSSPHNYGFGRERCDSLPTRNGTLSESSNQTYFGSNHGLRSNTISGIRPHSTNKHSNSPTFTMPLRCSESEESSISVDESDDNGSFSHYRLNTRSSETAIPEENIDDFASAELFSKVTEQNVSDENYIPMNPVNPTDAIHEKEKADMQRLEDASLHFNFPEHASEKLAKDFDLDSDNQCCRPIRAYSIGNKVEHLKFNKRLGHLNDTGQNPNRVRAYSVGSKSKIPRCDLQRVVLVEDNKHEFTANRSQSSITKEGTSYGSSANRQKKSTSAPLLSLKNQINSDRMSDLMEIDFSQATNLEKQKFIKNNEIPKYIENVFPKAPRTDSSSLTLHATSQKDIFNGTKLNNTAITSEDGYLEMKPVGNGYTPSSNCLPMKVEKLKLSDYQTAPPLTATAAPVHDLNKISTYNISAEKWREQPSRSEEKKSNSPLNDNTFSSKPTNVESTSKSHDVHSANQIDCEKVCAQSSDKLNNHLADKIVENNNLDIGGHEEKKLVHSISSEDYTQIKDKSNDFTKFNEAGYKILQIKSDSSLISSKLYQKGIHKDNLERSQRLTESVNTIPDNATATAVSSSSLTKFNINSAKPAAAADSRSTGTDPSTPQNILQIKDLNFPSRSSSRISQPELHYASLDLPHCSGQNPAKYLKRGSRESPPVSACPEDGNTYAKIDFDQSDSSSSSSNIFNT"
–,binds,"drosophila FBpp0083348 (ortholog of human PK3CB) (protein, UniProt P91634 1-1088) MNMMDNRALAYVAHQPKYETPPEEAEPPCMRFSVNLWKNEMLNWVDLICLLPNGFLLELRVNPANTIQVIKVEMVNQAKQMPLGYVIKEACEYQVYGISTFNIEPYTDETKRLSEVQPYFGILSLGERTDTTSFSSDYELTKMVNGMIGTTFDHNRTHGSPEIDDFRLYMTQTCDNIELERSAYTWQQRLLYEHPLRLANSTKMPELIRERHPTRTFLIVVKNENDQSTFTLSVNEQDTPFSLTESTLQKMNRSQMKMNDRTSDYILKVSGRDEYLLGDYPLIQFLYIQEMLSDSAVPNVVLQSVYRLESYINHHNEQAMVTKRPLPKKRTVHLHKSISSLWDMGNYFQLTLHSISNVNFDKTRALKVGVHVCLYHGDKKLCAQRSTDSPNGNFDTFLFNDLVMDFDIQMRNLPRMTRLCIVIFEVTKMSRSKKSSNNKDIALKDVPYNKNPLAWVNTTIFDHKDILRTGRHTLYTWTYADDIQSVEVFHPLGTIEPNPRKEECALVDLTFLSSGTGTVRYPSEEVVLQYAADREQVNRLQRQLAGPEKPIKELKELMANYTGLDKIYEMVDQDRNAIWERRNDILRELPEELSILLHCVYWKERDDVADMWYLLKQWPLISIERSLELLDYAYPDPAVRRFAIRCLHFLKDEDLLLYLLQLVQAIKHESYLESDLVVFLLERALRNQRIGHYFFWHLRSEMQTPSMQTRFGLLLEVYLKGCKHHVAPLRKQLHVLEKLKQGSLIAKKGSKEKVKTMLQDFLRDQRNSAVFQNIQNPLNPSFRCSGVTPDRCKVMDSKMRPLWVVFENADVNASDVHIIFKNGDDLRQDMLTLQMLRVMDQLWKRDGMDFRMNIYNCISMEKSLGMIEVVRHAETIANIQKEKGMFSATSPFKKGSLLSWLKEHNKPADKLNKAINEFTLSCAGYCVATYVLGVADRHSDNIMVKRNGQLFHIDFGHILGHFKEKLGVRRERVPFVLTHDFVYVINKGFNDRESKEFCHFQELCERAFLVLRKHGCLILSLFSMMISTGLPELSSEKDLDYLRETLVLDYTEEKAREHFRAKFSEALANSWKTSLNWASHNFSKNNKQ"
